{"source": "PubChem BioAssay AID504842", "about": "(National Center for Advancing Translational Sciences (NCATS), 2011)", "note": "In all, about 330,000 compounds went through this assay and about 100 (0.03%) were called active. The inconclusive results got no clear call from the source; some entries with a clear call stand among them for comparison. Calls come from the whole dose curve; as a rule, active = well fitted inhibition curve with a large enough effect; inconclusive = small, poorly fitted or top-dose-only effect; inactive = flat fitted curve, though single readings scatter. Potencies beside an inconclusive call are fits to weak or partial responses and may not hold up. Potency is the fitted concentration of half-maximal effect.", "data": [{"system": "Chaperonin Mm-Cpn (Methanococcus maripaludis)", "assay": "Inhibitors of TCP-1 ring complex (TRiC) of Methanococcus maripaludis (MmCpn): qHTS; note: nearly all actives have a fitted effect of over 80% in size;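 for Potency: enzyme at 25 nM with ATP substrate at 10 µM during the reaction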", "details": "purified Mm-Cpn ATPase, ADP Transcreener TR-FRET", "summary_of_the_method": "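ATPase turnover read by TR-FRET ADP competition (Eu cryptate antibody/ADP-d2, 665/590 nm): 10uM ATP final, 25nM Mm-CPN final, 30 min 37degC after 10-min compound preincubation, pH 7.4 Tris/KCl/MgCl2/DTT buffer.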", "values": [{"smiles": "Cc1cn([C@@H](CCCCNC(=O)OC(C)(C)C)C(=O)NCCCCCCCCCCC(=O)N2CCN(C(=O)OC(C)(C)C)CC2)nn1", "Potency": "inactive"}, {"smiles": "CCOC(=O)/C(C#N)=C/c1cn(CCC(=O)O)nc1-c1ccc(Cl)cc1", "Potency": "inactive"}, {"smiles": "O=C(Cc1cccs1)N1CCC(c2nc3c(nnn3Cc3ccccc3Cl)c(=O)[nH]2)CC1", "Potency": "inconclusive: 22.4 µM [inhibitor, single point]"}, {"smiles": "CC(C)OC(=O)CC(=O)CSc1nc(-c2ccc(F)cc2)cc(-c2ccccc2)c1C#N", "Potency": "inconclusive: 100 µM [inhibitor, partial curve, poor fit]"}, {"smiles": "COCC(=O)N1CCC(Oc2ccc(C(=O)N3CCCCCCC3)cc2)CC1", "Potency": "inconclusive: 100 µM [inhibitor, single point]"}, {"smiles": "CCCCCCNC(=O)N[C@H](C(=O)NCCC[C@H]1CN2C(=NC[C@H]2C)N1CCC(c1ccccc1)c1ccccc1)C(C)O", "note": "(stereo partly specified)", "Potency": "inconclusive: 63.1 µM [inhibitor, partial curve]"}, {"smiles": "O=C1CN(C(=O)CSc2nc3ccccc3c(=O)n2Cc2ccc(F)cc2)c2ccccc2N1", "Potency": "inconclusive: 100 µM [inhibitor, single point]"}, {"smiles": "Nc1nc(N2CCN(C(=O)c3ccco3)CC2)nc2ccc(Br)cc12", "Potency": "inconclusive: 112 µM [inhibitor, single point]"}, {"smiles": "CCOC(=O)CSC1=C(C#N)C(=O)NC(c2ccc(OC)cc2)S1", "note": "(stereo unspecified)", "Potency": "inactive"}, {"smiles": "COc1ccc(NC(=O)c2sc(N3CCOCC3)nc2-c2ccccc2)c(OC)c1", "Potency": "inconclusive: 100 µM [inhibitor, single point]"}, {"smiles": "c1ccc(-c2ccnc3nc(-n4cccc4)nn23)cc1", "Potency": "inconclusive: 501 µM [inhibitor, partial curve, poor fit]"}, {"smiles": "COc1ccccc1C(=O)Nc1nc2cc3c(cc2s1)OCO3", "Potency": "inactive"}, {"smiles": "CC1=C(C(=O)OC(C)C)C(c2cccc(F)c2)N2C(=O)C(C)SC2=N1", "note": "(stereo unspecified)", "Potency": "inconclusive: 22.4 µM [inhibitor, single point]"}, {"smiles": "COC(=O)c1cc(Cl)c(NC(=O)c2ccc(F)cc2)cc1OC", "Potency": "inactive"}, {"smiles": "CN(Cc1ccco1)S(=O)(=O)c1cc(F)ccc1CN1C(=O)c2cccnc2C1=O", "Potency": "inconclusive: 17.8 µM [inhibitor, single point]"}, {"smiles": "CCCCn1c(SCC(=O)NC(=O)NCc2ccco2)nc2cc(S(N)(=O)=O)ccc21", "Potency": "inconclusive: 12.6 µM [inhibitor, single point]"}, {"smiles": "CC1CCC(NC(=O)c2ccc(NC(=O)c3ccc(=O)[nH]c3)cc2)CC1", "note": "(stereo unspecified)", "Potency": "inconclusive: 22.4 µM [inhibitor, single point]"}, {"smiles": "COc1ccc(OC)c(-n2c(C)nc3cc(C(=O)O)ccc32)c1", "Potency": "inconclusive: 89.1 µM [inhibitor, single point]"}, {"smiles": "Cc1ccc(N(C(=O)CNC(=O)c2ccco2)C(C(=O)NC2CCCC2)c2cccnc2)cc1F", "note": "(stereo unspecified)", "Potency": "inactive"}, {"smiles": "COc1cc2cc(C(=O)N3CCc4ccccc4C3)[nH]c2cc1OC", "Potency": "inactive"}, {"smiles": "Cc1ccc(N2C(=O)CS/C2=N\\C(=S)Nc2ccccc2)cc1", "Potency": "inconclusive: 50.1 µM [inhibitor, single point]"}, {"smiles": "CCOc1ccc(C(=O)NCC(=O)OCC(=O)c2ccc3c(c2)-c2ccccc2C3)cc1", "Potency": "inconclusive: 178 µM [inhibitor, partial curve, poor fit]"}, {"smiles": "O=C(c1cc(-c2ccc(O)cc2)on1)N1CCN(c2ccc(F)cc2)CC1", "Potency": "inactive"}, {"smiles": "NC(=O)CSc1nnc(-c2ccc(S(=O)(=O)N3CCCCC3)cc2)n1-c1ccccc1", "Potency": "inconclusive: 100 µM [inhibitor, single point]"}, {"smiles": "COc1ccc(N=C2C(=Nc3ccc(OC)cc3)N(c3ccc(OC)cc3)C(=S)N2C(=O)c2ccc(OC)cc2)cc1", "Potency": "inactive"}, {"smiles": "CC1CC(C)CN(S(=O)(=O)c2ccc(C(=O)NNC(=O)c3ccccc3F)cc2)C1", "note": "(stereo unspecified)", "Potency": "inactive"}, {"smiles": "CNS(=O)(=O)c1cc(C(=O)NCc2ccco2)ccc1Cl", "Potency": "inconclusive: 17.8 µM [inhibitor, single point]"}, {"smiles": "COc1ccc(S(=O)(=O)N(C)Cc2cccs2)cc1Br", "Potency": "inconclusive: 17.8 µM [inhibitor, single point]"}, {"smiles": "COc1ccc(NC(=O)C2=C(C)C(=O)OC23CCC(C)CC3)cc1Cl", "note": "(stereo unspecified)", "Potency": "inconclusive: 56.2 µM [inhibitor, single point]"}, {"smiles": "O=[N+]([O-])c1ccc(C(O)CN2CCN(Cc3ccccc3)CC2)cc1", "note": "(stereo unspecified)", "Potency": "inconclusive: 12.6 µM [inhibitor, single point]"}, {"smiles": "CCN(CC)S(=O)(=O)c1ccc(S(=O)(=O)NCC2CCCO2)cc1", "note": "(stereo unspecified)", "Potency": "inconclusive: 25.1 µM [inhibitor, single point]"}, {"smiles": "Cc1ccc(/C=N/NC(=S)NC2CCS(=O)(=O)C2)cc1", "note": "(stereo unspecified)", "Potency": "inactive"}, {"smiles": "COc1ccc2[nH]c3c(c2c1)CCN1C(=O)C(CC(=O)NCCN2CCOCC2)C[C@H](C(=O)N2CCOCC2)[C@@]31CCC1CCCC1", "note": "(stereo partly specified)", "Potency": "inconclusive: 22.4 µM [inhibitor, single point]"}, {"smiles": "CC[C@@H]1C(c2ccccc2)=NN(c2ccccc2)[C@H]1C(=O)N1CCOC1=O", "Potency": "inconclusive: 50.1 µM [inhibitor, partial curve, poor fit]"}, {"smiles": "CCOC(=O)Cn1c(SC)nc2sc3c(c2c1=O)CC(C)(C)OC3", "Potency": "inconclusive: 50.1 µM [inhibitor, single point]"}, {"smiles": "CC(C)c1ccc(NC(=O)c2cc([N+](=O)[O-])ccc2N2CCOCC2)cc1", "Potency": "inactive"}, {"smiles": "CC(=O)c1ccc(S(=O)(=O)N2CCN(c3nc(-c4cccnc4)nc4ccccc34)CC2)cc1", "Potency": "inconclusive: 178 µM [inhibitor, partial curve, poor fit]"}, {"smiles": "CC1CN(CCOc2ccc([N+](=O)[O-])cc2)CC(C)O1", "note": "(stereo unspecified)", "Potency": "inactive"}, {"smiles": "COc1ccc(CN2CCN(Cc3cc4ccccc4o3)CC2CCO)cc1C", "note": "(stereo unspecified)", "Potency": "inactive"}, {"smiles": "O=C(CSCc1ccc(Cl)cc1)Nc1ccc2c(c1)OCCO2", "Potency": "inconclusive: 79.4 µM [inhibitor, single point]"}, {"smiles": "CC1=C(C)CC(C(=O)N2CCN(Cc3ccc4c(c3)OCO4)CC2)C(C(=O)O)C1", "note": "(stereo unspecified)", "Potency": "inconclusive: 10 µM [inhibitor, single point]"}, {"smiles": "Cc1ccc(OCCCc2c(C)n[nH]c2C)cc1", "Potency": "inactive"}, {"smiles": "CCC(C(=O)NCCCN1CC(C)CC(C)C1)n1nc(C)c2sc3ccccc3c2c1=O", "note": "(stereo unspecified)", "Potency": "inconclusive: 12.6 µM [inhibitor, single point]"}, {"smiles": "CCN(CC)C(=O)CSC1=C(C#N)C(c2cccs2)C=C(C)N1", "note": "(stereo unspecified)", "Potency": "inconclusive: 112 µM [inhibitor, partial curve]"}, {"smiles": "CCC(=O)Nc1nc(-c2cc([N+](=O)[O-])cs2)cs1", "Potency": "active: 35.5 µM"}, {"smiles": "COC(=O)CN(c1ccc(C)c(Cl)c1)S(C)(=O)=O", "Potency": "inconclusive: 100 µM [inhibitor, single point]"}, {"smiles": "Cc1ccc(-c2nn3c(C)nnc3c3ccccc23)cc1S(=O)(=O)NC(C)c1ccccc1", "note": "(stereo unspecified)", "Potency": "inactive"}, {"smiles": "CC(C)CCNC(=O)c1ccccc1NC(=O)C1=CSCCO1", "Potency": "inconclusive: 22.4 µM [inhibitor, single point]"}, {"smiles": "Cc1onc(-c2ccccc2)c1C(=O)Nc1sc2c(c1C#N)CCC(C)C2", "note": "(stereo unspecified)", "Potency": "inactive"}, {"smiles": "COc1ccc2sc(-c3ccccc3OC)c(-c3ccc4c(c3)OCCO4)c2c1", "Potency": "inconclusive: 10 µM [inhibitor, partial curve, poor fit]"}, {"smiles": "C/C(=N\\NC(=S)NC1CCCCC1)c1ccc(O)cc1", "Potency": "inactive"}, {"smiles": "COc1ccccc1N1CCN(Cc2nc3ccccc3[nH]2)CC1", "Potency": "inactive"}, {"smiles": "CC(C)(C)OC(=O)C[C@@H]1C/C=C\\C[C@H](CC(=O)N(CCO)Cc2ccccc2)C(=O)NC[C@@H](c2ccccc2)OC1=O", "Potency": "inactive"}, {"smiles": "C[C@@]12C(=O)Nc3cc(F)c(F)cc3C(=O)N1[C@H]1c3cc(Cl)ccc3OC[C@@H]1[C@@H]2c1ccccc1", "Potency": "inconclusive: 1580 µM [inhibitor, partial curve, poor fit]"}, {"smiles": "COc1ccc2nc(SCC(=O)Nc3ccc(S(=O)(=O)N4CCCC4)cc3)c(C#N)cc2c1", "Potency": "inconclusive: 89.1 µM [inhibitor, partial curve, poor fit]"}, {"smiles": "COc1ccc(OCC(=O)NC(=S)Nc2ccc3c4c(cccc24)CC3)cc1", "Potency": "inconclusive: 112 µM [inhibitor, single point]"}, {"smiles": "COc1cccc(/C=N/N2C(=O)CSC2=S)c1O", "Potency": "inconclusive: 22.4 µM [inhibitor, single point]"}, {"smiles": "CC1CCCC(NC(=O)COC(=O)CCC(=O)c2ccc(F)cc2)C1C", "note": "(stereo unspecified)", "Potency": "inactive"}, {"smiles": "CCOC(=O)c1c(NC(=S)Nc2ccccc2)sc2c1CC(C)(C)SC2", "Potency": "active: 50.1 µM"}, {"smiles": "N#Cc1c(-c2ccccc2)nc(SCC(=O)Nc2ccc(OC(F)(F)Cl)cc2)[nH]c1=O", "Potency": "inconclusive: 447 µM [inhibitor, partial curve, poor fit]"}, {"smiles": "C=CC[C@@H](CC(=O)N(CCO)Cc1ccccc1)C(=O)NC[C@@H](OC(=O)[C@@H](CC=C)Cc1ccc(F)cc1)c1ccccc1", "Potency": "inconclusive: 79.4 µM [inhibitor, single point]"}, {"smiles": "S=c1[nH]nc(-c2ccc(Cl)cc2)n1-c1ccc2c(c1)OCCO2", "Potency": "inactive"}, {"smiles": "Cc1ccc(-c2ccc(SCC(=O)NC3CCCCC3)nn2)cc1", "Potency": "inconclusive: 28.2 µM [inhibitor, single point]"}, {"smiles": "CC(C)(CNC(=O)CC1C(=O)NCCN1Cc1cccc(F)c1F)N1CCOCC1", "note": "(stereo unspecified)", "Potency": "inconclusive: 100 µM [inhibitor, partial curve, poor fit]"}, {"smiles": "O=C(Cn1cncn1)N1CCN(c2ccc(F)cc2)CC1", "Potency": "inactive"}, {"smiles": "Cc1ccc(S(=O)(=O)c2c(C(=O)c3ccccc3)cnc3cc4c(cc23)OCCO4)cc1", "Potency": "inconclusive: 126 µM [inhibitor, partial curve, poor fit]"}]}]}
